Measured values as given in the supplement of paper PMC12823440, “Inhibitors supercharge kinase turnover through native proteolytic circuits” (Nature, 2025).
Structures can show the parent of a compound that is named as a salt. The list shows a part of the results. Hit calls seldom repeat between salt and free forms of one compound.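 Kinases, fused to nanoluciferase, were expressed in K562 cells; luminescence was measured every 4 h from 2 to 18 h as percent of control (DMSO = 100%, positive control = 0%). A time point is decreased if signal falls significantly (2 sigma). Hits were called by the authors by a rule that is not shown; the count of time points alone does not decide it.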

Chains of the proteins cited; added tags and fusions are not shown. Lines headed by an entry give the natural chain unless they say otherwise; changes in a name come on top.
UniProt Q9UM73: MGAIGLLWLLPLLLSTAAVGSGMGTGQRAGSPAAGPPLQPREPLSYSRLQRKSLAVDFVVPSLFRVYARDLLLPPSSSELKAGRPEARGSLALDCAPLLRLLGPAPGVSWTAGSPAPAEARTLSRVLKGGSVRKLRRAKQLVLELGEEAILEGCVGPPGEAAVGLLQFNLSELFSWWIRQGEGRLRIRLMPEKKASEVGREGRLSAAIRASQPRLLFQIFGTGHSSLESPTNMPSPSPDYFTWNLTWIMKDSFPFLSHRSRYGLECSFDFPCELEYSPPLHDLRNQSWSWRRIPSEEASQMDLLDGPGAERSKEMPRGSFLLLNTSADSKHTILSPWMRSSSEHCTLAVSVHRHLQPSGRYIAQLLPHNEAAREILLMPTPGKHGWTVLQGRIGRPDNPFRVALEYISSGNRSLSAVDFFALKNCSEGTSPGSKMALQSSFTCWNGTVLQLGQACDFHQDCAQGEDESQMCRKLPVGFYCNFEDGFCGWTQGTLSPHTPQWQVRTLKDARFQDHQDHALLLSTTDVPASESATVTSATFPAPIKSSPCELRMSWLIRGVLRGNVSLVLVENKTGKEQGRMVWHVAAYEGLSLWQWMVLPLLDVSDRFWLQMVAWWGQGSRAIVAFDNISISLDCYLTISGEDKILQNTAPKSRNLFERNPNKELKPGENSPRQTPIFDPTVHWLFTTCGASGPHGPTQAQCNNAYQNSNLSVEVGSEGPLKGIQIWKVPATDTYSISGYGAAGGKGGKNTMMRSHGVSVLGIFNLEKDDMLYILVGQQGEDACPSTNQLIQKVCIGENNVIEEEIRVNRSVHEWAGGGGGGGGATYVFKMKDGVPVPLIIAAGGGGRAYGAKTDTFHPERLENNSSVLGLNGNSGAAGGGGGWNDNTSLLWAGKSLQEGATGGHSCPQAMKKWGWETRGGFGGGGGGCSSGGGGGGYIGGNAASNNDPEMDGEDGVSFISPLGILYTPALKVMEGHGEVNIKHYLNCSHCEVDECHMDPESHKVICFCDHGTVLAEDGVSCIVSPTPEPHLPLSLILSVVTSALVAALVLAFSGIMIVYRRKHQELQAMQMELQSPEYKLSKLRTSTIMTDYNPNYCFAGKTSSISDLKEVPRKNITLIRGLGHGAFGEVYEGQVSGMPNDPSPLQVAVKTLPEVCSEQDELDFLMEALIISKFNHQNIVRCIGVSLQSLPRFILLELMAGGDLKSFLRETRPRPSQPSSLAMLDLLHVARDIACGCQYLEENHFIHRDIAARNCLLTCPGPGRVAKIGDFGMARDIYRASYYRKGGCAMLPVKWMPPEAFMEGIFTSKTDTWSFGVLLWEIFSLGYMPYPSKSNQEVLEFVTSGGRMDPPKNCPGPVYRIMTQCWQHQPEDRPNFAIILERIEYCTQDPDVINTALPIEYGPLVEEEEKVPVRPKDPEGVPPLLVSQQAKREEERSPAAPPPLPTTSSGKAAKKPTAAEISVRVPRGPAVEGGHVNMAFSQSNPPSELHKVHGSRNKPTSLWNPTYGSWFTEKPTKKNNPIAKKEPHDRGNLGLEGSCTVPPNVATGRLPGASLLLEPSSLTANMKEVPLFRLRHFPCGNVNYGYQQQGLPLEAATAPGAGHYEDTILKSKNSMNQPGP
UniProt P10398: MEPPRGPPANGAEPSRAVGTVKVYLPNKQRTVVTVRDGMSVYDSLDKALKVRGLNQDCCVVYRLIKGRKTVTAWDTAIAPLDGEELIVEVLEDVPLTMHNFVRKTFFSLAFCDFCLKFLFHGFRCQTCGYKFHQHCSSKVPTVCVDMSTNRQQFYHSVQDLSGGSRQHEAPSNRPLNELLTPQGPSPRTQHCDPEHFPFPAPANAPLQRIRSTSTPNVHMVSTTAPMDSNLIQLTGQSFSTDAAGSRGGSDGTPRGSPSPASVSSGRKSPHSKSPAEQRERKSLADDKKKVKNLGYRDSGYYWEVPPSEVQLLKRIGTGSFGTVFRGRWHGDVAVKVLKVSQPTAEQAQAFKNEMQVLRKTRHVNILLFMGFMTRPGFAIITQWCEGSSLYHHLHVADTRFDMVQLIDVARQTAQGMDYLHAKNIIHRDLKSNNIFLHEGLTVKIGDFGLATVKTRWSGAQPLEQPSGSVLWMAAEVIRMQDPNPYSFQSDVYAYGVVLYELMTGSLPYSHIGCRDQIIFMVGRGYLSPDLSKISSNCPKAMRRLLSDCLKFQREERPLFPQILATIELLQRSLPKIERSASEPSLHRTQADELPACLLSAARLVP
UniProt O14965: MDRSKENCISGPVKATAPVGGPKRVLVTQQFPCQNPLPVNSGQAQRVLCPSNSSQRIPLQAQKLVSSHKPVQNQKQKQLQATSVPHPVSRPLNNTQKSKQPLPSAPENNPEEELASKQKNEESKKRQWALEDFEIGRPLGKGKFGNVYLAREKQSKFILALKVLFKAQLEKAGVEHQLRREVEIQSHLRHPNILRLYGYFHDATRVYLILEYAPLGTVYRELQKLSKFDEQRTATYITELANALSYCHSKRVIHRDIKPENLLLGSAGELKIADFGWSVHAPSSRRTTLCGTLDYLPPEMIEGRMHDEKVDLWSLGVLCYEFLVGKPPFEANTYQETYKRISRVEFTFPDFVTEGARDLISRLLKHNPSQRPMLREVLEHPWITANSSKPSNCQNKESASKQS
UniProt Q96GD4, whole entry: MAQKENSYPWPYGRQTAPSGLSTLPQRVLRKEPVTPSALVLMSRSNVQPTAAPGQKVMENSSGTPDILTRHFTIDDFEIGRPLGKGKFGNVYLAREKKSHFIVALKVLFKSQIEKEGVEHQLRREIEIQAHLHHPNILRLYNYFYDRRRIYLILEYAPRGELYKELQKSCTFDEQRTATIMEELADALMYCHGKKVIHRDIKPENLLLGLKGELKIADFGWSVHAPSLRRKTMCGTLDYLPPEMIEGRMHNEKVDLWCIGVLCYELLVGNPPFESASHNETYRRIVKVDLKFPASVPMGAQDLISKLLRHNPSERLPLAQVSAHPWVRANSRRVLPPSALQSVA
UniProt Q9UQB9: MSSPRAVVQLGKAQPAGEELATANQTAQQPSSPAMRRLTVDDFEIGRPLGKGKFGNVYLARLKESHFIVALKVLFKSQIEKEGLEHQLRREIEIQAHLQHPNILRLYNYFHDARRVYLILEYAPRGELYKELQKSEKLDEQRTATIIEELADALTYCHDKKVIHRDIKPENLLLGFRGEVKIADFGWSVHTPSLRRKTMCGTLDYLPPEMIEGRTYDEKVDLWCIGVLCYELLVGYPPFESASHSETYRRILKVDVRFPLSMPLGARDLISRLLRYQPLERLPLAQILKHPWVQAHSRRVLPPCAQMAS
UniProt P51451: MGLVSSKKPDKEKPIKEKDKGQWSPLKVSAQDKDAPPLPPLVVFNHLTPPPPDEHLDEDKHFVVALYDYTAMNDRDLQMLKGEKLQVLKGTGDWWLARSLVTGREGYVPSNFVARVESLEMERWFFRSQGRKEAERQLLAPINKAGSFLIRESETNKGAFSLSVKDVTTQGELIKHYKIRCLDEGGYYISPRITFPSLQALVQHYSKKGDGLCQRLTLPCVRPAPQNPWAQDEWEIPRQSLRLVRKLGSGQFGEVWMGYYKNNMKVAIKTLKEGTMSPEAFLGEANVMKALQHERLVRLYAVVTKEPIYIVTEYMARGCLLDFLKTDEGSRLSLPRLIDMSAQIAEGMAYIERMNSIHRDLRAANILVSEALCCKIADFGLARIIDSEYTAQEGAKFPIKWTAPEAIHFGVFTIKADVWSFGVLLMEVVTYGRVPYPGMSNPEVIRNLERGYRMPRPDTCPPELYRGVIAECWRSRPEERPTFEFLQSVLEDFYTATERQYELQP
UniProt P51813: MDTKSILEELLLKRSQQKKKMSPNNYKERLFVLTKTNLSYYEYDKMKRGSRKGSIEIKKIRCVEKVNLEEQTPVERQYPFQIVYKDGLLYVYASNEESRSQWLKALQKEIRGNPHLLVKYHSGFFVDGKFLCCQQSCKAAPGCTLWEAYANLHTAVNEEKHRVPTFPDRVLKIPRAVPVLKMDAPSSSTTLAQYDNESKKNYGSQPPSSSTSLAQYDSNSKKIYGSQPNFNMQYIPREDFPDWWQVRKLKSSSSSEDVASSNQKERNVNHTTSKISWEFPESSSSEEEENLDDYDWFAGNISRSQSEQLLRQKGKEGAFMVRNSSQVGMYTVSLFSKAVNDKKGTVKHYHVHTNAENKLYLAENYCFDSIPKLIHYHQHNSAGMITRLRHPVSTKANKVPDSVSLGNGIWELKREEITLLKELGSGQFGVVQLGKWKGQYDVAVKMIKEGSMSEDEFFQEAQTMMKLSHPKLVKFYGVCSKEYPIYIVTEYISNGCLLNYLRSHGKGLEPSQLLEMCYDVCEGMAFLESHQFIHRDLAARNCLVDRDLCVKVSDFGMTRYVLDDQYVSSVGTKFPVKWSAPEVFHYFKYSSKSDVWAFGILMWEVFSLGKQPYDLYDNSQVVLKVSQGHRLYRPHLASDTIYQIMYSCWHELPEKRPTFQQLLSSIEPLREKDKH
UniProt P15056, whole entry, looked up: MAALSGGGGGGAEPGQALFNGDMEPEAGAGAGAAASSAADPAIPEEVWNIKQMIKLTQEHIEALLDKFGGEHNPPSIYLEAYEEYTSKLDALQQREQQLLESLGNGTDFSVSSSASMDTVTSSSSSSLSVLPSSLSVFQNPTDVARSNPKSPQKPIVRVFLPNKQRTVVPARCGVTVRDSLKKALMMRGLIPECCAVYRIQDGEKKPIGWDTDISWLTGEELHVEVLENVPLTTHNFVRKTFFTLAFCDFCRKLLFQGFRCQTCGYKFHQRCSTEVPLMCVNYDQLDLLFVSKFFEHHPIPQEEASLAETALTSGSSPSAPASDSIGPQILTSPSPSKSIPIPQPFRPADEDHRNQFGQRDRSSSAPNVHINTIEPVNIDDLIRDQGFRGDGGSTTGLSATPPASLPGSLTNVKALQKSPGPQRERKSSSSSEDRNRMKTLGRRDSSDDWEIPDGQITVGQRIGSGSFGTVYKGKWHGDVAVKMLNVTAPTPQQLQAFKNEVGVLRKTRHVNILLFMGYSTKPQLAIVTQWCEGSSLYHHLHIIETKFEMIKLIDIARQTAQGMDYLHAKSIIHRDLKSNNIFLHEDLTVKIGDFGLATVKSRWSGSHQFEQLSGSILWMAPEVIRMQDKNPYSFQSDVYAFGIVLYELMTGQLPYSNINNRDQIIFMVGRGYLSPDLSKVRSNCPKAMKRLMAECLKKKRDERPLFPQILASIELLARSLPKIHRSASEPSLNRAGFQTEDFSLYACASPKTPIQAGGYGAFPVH
UniProt Q06187: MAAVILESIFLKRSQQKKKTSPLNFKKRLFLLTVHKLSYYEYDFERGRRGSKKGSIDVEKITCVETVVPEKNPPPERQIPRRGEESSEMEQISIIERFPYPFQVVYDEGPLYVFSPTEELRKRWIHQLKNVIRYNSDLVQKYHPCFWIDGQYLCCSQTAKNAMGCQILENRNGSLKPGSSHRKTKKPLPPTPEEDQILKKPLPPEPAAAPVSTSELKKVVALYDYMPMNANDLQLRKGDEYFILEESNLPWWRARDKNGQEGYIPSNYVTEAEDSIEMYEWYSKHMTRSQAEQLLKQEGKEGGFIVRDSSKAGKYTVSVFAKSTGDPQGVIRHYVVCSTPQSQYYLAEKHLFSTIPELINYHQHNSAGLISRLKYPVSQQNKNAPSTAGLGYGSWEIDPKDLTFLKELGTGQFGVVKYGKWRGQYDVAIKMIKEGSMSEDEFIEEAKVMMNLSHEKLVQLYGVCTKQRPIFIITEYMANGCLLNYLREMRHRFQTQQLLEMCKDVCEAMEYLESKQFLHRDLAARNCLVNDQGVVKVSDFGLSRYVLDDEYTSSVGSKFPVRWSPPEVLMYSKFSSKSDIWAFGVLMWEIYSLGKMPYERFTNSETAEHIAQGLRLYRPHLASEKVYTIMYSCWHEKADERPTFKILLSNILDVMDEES

What was measured:
Experiment in all cases: number of time points (of 5) at which kinase-Nluc abundance scored as decreased, DMSO-normalised (count); higher = more persistent destabilization
Conditions in all cases: K562; 2-18 h
ALK = ALK (UniProt Q9UM73)
ARAF = ARAF (UniProt P10398)
AURKA = AURKA (UniProt O14965)
AURKB = AURKB (UniProt Q96GD4)
AURKC = AURKC (UniProt Q9UQB9)
BLK = BLK (UniProt P51451)
BMX = BMX (UniProt P51813)
BRAF = BRAF (UniProt P15056)
BRAF_V600E = tested on: BRAF_V600E
BTK = BTK (UniProt Q06187)

| Structure (SMILES) | number of time points (ALK) | number of time points (ARAF) | number of time points (AURKA) | number of time points (AURKB) | number of time points (AURKC) | number of time points (BLK) | number of time points (BMX) | number of time points (BRAF) | number of time points (BRAF_V600E) | number of time points (BTK) |
| --- | --- | --- | --- | --- | --- | --- | --- | --- | --- | --- |
| N#CC(C#N)=NNc1cccc(Cl)c1 (2.5 µM) | 0 | 0 | 0 | 0 | 0 | 0 | 0 | 0 | 1 | 0 |
| CCCS(=O)(=O)Nc1ccc(F)c(-n2cc(-c3cncnc3)c3nc(N(C)C4CCN(CC)CC4)ccc32)c1F (2 µM) | 0 | 0 | 0 | 0 | 0 | 0 | 0 | 0 | 0 | 0 |
| Cn1cc(C2=C(c3cn(C4CCN(Cc5ccccn5)CC4)c4ccccc34)C(=O)NC2=O)c2ccccc21 [Enzastaurin] (10 µM) | 0 | 0 | 0 | 0 | 0 | 0 | 0 | 0 | 0 | 0 |
| C[C@H]1CC[C@]2(NC1)O[C@H]1C[C@H]3[C@@H]4CC[C@H]5C[C@@H](O)CC[C@]5(C)[C@H]4CC[C@]3(C)[C@H]1[C@@H]2C [Tomatidine (hydrochloride)] (10 µM) | 0 | 0 | 0 | 0 | 0 | 0 | 0 | 0 | 0 | 0 |
| O=c1ccc2cc(O[C@@H]3O[C@H](CO)[C@@H](O)[C@H](O)[C@H]3O)c(O)cc2o1 [Esculin] (10 µM) | 0 | 0 | 0 | 0 | 0 | 0 | 0 | 0 | 0 | 0 |
| CC(=O)OC(C)(C)/C=C/C(=O)[C@](C)(O)[C@H]1[C@H](O)C[C@@]2(C)[C@@H]3CC=C4[C@@H](C=C(O)C(=O)C4(C)C)[C@]3(C)C(=O)C[C@]12C [Cucurbitacin E] (2.5 µM) | 3 | 0 | 4 | 4 | 0 | 0 | 1 | 0 | 0 | 0 |
| Nc1ncnc2c1ncn2[C@@H]1O[C@@H]2COP(O)(=S)O[C@H]2[C@H]1O (some centres undefined) [Sp-cAMPS (sodium salt)] (10 µM) | 0 | 0 | 0 | 0 | 0 | 0 | 1 | 0 | 0 | 0 |
| COc1ccc2c(c1OC)C(OC)N(C)c1c-2ccc2cc3c(cc12)OCO3 (centres undefined) [Angoline] (10 µM) | 0 | 0 | 0 | 0 | 0 | 0 | 0 | 0 | 0 | 0 |
| O=C(O)c1sc2cc(Cl)ccc2c1Cl (10 µM) | 0 | 0 | 0 | 0 | 0 | 0 | 0 | 0 | 0 | 0 |
| NCCc1cn(S(=O)(=O)c2c(Cl)nc3sccn23)c2ccccc12 (10 µM) | 0 | 0 | 0 | 0 | 0 | 0 | 0 | 0 | 0 | 0 |
| COC[C@H]1OC(=O)c2coc3c2[C@@]1(C)C1=C(C3=O)[C@@H]2CCC(=O)[C@@]2(C)C[C@H]1OC(C)=O [Wortmannin] (2.5 µM) | 0 | 0 | 4 | 4 | 0 | 3 | 4 | 0 | 3 | 0 |
| Cc1n[nH]cc1-c1cc2nc([C@@H]3CC4CCN3CC4)[nH]c(=O)c2s1 [Simurosertib] (2.5 µM) | 0 | 0 | 0 | 0 | 0 | 0 | 0 | 0 | 0 | 0 |
| COc1ccc(N(C(=O)Oc2c(C)cccc2C)c2ccnc(Nc3ccc(N4CCN(C)CC4)cc3)n2)c(OC)c1 (2.5 µM) | 0 | 0 | 0 | 0 | 0 | 1 | 0 | 0 | 0 | 0 |
| C/C=C(/C)C(=O)O[C@H]1[C@@H]2[C@H](C)C(=O)O[C@@H]2C[C@@H](C)[C@@H]2C=CC(=O)[C@]21C [Brevilin A] (2.5 µM) | 0 | 0 | 0 | 0 | 0 | 0 | 0 | 0 | 0 | 0 |
| COc1cc2c(cc1F)C(c1ccccc1Cl)=Nc1c(n[nH]c1C)N2 (0.5 µM) | 0 | 0 | 0 | 0 | 0 | 0 | 0 | 0 | 0 | – |
| COc1ccc2c(c1)[nH]c1c(C)nccc12 [Harmine] (10 µM) | 0 | 0 | 0 | 0 | 0 | 0 | 0 | 0 | 0 | 0 |
| CC(=O)Oc1ccc(/C=C/c2cc(OC(C)=O)cc(OC(C)=O)c2)cc1 [Triacetylresveratrol] (10 µM) | 0 | 0 | 0 | 0 | 0 | 0 | 0 | 0 | 0 | 0 |
| C=CC(=O)Nc1ccc2[nH]c(=O)n(C3CCN(Cc4ccc(-c5nc6cc[nH]c(=O)c6cc5-c5ccccc5)cc4)CC3)c2c1 [Borussertib] (10 µM) | 0 | 0 | 0 | 0 | 0 | 3 | 0 | 0 | 0 | 0 |
| O=c1[nH]c2ccccc2n1C1CCN(Cc2ccc(-c3[nH]c4cc5ncnc5cc4nc3-c3ccccc3)cc2)CC1 [AKT inhibitor VIII] (2.5 µM) | 0 | 0 | 0 | 0 | 0 | 0 | 0 | 0 | 0 | 0 |
| C[C@@H]1CC[C@H]2[C@@H](C)C(=O)O[C@@H]3O[C@@]4(C)CC[C@@H]1[C@]32OO4 [Artemisinin] (10 µM) | 0 | 0 | 0 | 0 | 0 | 0 | 0 | 0 | 0 | 0 |
| COc1ccc2c(c[n+](C)c3c4cc5c(cc4ccc23)OCO5)c1OC [Chelerythrine (chloride)] (10 µM) | 0 | 0 | 0 | 0 | 0 | 0 | 0 | 0 | 0 | 0 |
| O=[N+]([O-])/C=C/c1ccc2c(c1)OCO2 (2.5 µM) | 0 | 0 | 0 | 0 | 0 | 0 | 0 | 0 | 0 | 0 |
| CCN1CCN(C(=O)Cc2ccc(Nc3ncc(F)c(Nc4ccc(C(=O)Nc5ccccc5Cl)cc4)n3)cc2)CC1 (2.5 µM) | 0 | 0 | 0 | 0 | 0 | 0 | 0 | 0 | 0 | 0 |
| C[S+]([O-])/C=C/CCN=C=S (centres undefined) [Sulforaphene] (10 µM) | 0 | 0 | 0 | 0 | 0 | 0 | 0 | 0 | 0 | 0 |
| CC1=C[C@]23C(=O)[C@@H](C=C(CO)[C@@H](O)[C@]2(O)[C@H]1O)[C@H]1[C@@H](C[C@H]3C)C1(C)C [Ingenol] (10 µM) | 0 | 0 | 0 | 0 | 0 | 0 | 0 | 0 | 0 | 0 |
| C=CC(=O)N[C@H]1C=C(C)c2c(-c3cnc4ccccc4c3)c3c(N)ncnc3n2C1 (10 µM) | 0 | 0 | 0 | 0 | 0 | 0 | 0 | 0 | 0 | 0 |
| O=C1c2ccccc2C(=O)c2c1cccc2-c1cnn(C2CCNCC2)c1 [PDK4-IN-1 (hydrochloride)] (10 µM) | 0 | 0 | 0 | 0 | 0 | 0 | 0 | 0 | 1 | 0 |
| CCCCNc1nc(N)c2[nH]c(=O)n(Cc3ccc(C)nc3)c2n1 (10 µM) | 0 | 0 | 0 | 0 | 0 | 0 | 0 | 0 | 0 | 0 |
| CCOC(=O)c1c(/C(C#N)=C\N)c2ccc(Cl)c(Cl)c2n1C (10 µM) | 0 | 0 | 0 | 0 | 0 | 0 | 0 | 0 | 0 | 0 |

3 entries out of the list, ordered by SMILES length, smallest number first.

| Structure (SMILES) | number of time points (ALK) | number of time points (ARAF) | number of time points (AURKA) | number of time points (AURKB) | number of time points (AURKC) | number of time points (BLK) | number of time points (BMX) | number of time points (BRAF) | number of time points (BRAF_V600E) | number of time points (BTK) |
| --- | --- | --- | --- | --- | --- | --- | --- | --- | --- | --- |
| Nc1ncnc2c1ncn2[C@@H]1O[C@@H]2COP(O)(=S)O[C@H]2[C@H]1O (some centres undefined) [Sp-cAMPS (sodium salt)] (10 µM) | 0 | 0 | 0 | 0 | 0 | 0 | 1 | 0 | 0 | 0 |
| CCCS(=O)(=O)Nc1ccc(F)c(-n2cc(-c3cncnc3)c3nc(N(C)C4CCN(CC)CC4)ccc32)c1F (2 µM) | 0 | 0 | 0 | 0 | 0 | 0 | 0 | 0 | 0 | 0 |
| CC(=O)OC(C)(C)/C=C/C(=O)[C@](C)(O)[C@H]1[C@H](O)C[C@@]2(C)[C@@H]3CC=C4[C@@H](C=C(O)C(=O)C4(C)C)[C@]3(C)C(=O)C[C@]12C [Cucurbitacin E] (2.5 µM) | 3 | 0 | 4 | 4 | 0 | 0 | 1 | 0 | 0 | 0 |
